Assay results reported in the supplement of paper PMC5836539.
± gives the standard deviation of the averaged measurements. This data set is noisy: repeats of one test often differ as much as different tests do.

Amino acid sequences for entries named in this document (tags omitted). A change or cut given only in a name is not applied to a line headed by its entry.
UniProt P21333, whole entry, looked up: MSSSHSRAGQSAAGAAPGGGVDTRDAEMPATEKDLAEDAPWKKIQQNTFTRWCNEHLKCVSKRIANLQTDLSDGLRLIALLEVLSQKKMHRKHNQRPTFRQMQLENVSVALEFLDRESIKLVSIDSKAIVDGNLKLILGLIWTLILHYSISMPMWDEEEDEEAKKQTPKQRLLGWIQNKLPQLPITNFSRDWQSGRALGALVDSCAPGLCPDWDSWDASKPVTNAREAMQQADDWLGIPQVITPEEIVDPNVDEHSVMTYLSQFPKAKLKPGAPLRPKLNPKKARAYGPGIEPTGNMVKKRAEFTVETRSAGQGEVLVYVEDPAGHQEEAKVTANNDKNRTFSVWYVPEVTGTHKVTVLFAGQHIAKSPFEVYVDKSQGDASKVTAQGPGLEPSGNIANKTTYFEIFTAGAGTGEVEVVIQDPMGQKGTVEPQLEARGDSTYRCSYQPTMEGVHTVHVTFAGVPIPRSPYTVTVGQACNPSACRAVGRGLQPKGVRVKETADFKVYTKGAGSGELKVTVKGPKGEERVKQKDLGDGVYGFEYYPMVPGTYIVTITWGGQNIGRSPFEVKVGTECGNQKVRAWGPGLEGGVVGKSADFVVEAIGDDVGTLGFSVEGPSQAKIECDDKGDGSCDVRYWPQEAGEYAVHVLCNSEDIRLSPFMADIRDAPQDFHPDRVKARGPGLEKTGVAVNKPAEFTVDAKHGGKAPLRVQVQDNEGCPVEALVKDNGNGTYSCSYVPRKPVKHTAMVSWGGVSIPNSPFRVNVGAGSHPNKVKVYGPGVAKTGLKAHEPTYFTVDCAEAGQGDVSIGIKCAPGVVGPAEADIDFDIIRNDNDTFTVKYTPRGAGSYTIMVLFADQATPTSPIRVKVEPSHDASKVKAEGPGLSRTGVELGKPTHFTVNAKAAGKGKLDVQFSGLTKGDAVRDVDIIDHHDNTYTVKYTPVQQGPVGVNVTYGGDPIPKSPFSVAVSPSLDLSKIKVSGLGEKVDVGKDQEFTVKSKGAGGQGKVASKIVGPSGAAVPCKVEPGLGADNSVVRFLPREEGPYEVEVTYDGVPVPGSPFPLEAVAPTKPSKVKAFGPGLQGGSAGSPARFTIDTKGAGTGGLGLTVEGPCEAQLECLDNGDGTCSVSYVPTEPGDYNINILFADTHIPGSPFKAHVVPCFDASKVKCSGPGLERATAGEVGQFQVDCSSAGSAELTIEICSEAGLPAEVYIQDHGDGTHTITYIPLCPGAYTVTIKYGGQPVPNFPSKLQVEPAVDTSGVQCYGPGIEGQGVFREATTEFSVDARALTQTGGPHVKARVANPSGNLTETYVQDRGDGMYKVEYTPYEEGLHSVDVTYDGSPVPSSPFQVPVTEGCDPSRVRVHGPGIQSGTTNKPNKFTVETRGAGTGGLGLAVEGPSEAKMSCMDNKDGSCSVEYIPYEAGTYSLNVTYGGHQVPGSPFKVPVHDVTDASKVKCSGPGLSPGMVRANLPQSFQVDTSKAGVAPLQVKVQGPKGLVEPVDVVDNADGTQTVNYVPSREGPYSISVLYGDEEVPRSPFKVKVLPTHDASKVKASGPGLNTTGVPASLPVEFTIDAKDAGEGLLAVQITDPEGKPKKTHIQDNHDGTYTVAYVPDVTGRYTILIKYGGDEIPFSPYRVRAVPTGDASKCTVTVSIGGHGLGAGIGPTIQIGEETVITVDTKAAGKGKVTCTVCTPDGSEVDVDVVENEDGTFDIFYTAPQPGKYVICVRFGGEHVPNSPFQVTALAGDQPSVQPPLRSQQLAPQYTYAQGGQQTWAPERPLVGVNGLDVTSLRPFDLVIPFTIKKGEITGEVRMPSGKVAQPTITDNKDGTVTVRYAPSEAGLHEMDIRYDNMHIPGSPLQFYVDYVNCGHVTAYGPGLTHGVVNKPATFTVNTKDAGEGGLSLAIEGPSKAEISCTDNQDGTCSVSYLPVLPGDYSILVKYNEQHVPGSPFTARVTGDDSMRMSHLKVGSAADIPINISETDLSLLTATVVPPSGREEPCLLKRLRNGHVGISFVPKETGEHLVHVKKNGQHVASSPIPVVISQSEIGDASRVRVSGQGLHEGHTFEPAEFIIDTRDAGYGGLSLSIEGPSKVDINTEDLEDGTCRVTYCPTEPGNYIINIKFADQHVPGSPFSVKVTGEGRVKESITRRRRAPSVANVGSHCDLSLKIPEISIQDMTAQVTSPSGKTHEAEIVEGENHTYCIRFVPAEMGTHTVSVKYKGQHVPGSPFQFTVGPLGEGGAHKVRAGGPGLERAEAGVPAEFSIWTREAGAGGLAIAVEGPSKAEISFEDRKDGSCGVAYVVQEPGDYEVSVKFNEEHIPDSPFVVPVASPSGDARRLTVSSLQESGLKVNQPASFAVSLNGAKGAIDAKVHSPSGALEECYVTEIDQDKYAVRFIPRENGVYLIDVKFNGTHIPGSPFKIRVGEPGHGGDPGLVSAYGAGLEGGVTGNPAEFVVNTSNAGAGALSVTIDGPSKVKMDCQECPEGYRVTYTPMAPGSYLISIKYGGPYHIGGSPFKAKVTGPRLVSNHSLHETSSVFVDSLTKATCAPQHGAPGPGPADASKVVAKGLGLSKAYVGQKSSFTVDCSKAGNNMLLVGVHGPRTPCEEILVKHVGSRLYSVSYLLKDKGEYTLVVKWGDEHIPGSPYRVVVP
UniProt Q96MW1: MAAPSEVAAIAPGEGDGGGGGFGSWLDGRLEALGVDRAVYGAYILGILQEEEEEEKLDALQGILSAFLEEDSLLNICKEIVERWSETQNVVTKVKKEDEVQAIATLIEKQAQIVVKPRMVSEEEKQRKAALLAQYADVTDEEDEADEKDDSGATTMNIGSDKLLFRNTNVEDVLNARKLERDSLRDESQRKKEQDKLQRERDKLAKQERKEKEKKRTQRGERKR
UniProt Q01433: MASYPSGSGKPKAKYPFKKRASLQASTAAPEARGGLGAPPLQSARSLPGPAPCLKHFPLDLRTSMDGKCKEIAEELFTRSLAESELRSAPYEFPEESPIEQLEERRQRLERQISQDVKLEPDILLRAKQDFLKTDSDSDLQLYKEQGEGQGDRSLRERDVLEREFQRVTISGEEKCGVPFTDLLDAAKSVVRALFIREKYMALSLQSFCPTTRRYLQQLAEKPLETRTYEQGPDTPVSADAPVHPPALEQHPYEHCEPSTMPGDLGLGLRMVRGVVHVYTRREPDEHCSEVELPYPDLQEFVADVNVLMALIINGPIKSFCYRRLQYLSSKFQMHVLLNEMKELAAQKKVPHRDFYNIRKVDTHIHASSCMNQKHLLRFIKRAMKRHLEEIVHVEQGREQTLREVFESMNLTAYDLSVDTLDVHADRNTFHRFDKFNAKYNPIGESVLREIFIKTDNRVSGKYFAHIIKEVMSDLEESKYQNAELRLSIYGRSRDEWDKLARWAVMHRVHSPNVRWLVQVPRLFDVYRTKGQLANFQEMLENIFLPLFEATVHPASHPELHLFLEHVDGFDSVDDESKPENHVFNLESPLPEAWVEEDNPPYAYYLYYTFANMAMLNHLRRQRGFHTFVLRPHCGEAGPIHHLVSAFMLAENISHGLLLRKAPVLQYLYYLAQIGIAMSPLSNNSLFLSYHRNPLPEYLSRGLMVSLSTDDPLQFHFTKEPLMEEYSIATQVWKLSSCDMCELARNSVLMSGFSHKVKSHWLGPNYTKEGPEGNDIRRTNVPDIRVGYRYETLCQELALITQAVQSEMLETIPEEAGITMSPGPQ
UniProt Q9NYF8, whole entry, looked up: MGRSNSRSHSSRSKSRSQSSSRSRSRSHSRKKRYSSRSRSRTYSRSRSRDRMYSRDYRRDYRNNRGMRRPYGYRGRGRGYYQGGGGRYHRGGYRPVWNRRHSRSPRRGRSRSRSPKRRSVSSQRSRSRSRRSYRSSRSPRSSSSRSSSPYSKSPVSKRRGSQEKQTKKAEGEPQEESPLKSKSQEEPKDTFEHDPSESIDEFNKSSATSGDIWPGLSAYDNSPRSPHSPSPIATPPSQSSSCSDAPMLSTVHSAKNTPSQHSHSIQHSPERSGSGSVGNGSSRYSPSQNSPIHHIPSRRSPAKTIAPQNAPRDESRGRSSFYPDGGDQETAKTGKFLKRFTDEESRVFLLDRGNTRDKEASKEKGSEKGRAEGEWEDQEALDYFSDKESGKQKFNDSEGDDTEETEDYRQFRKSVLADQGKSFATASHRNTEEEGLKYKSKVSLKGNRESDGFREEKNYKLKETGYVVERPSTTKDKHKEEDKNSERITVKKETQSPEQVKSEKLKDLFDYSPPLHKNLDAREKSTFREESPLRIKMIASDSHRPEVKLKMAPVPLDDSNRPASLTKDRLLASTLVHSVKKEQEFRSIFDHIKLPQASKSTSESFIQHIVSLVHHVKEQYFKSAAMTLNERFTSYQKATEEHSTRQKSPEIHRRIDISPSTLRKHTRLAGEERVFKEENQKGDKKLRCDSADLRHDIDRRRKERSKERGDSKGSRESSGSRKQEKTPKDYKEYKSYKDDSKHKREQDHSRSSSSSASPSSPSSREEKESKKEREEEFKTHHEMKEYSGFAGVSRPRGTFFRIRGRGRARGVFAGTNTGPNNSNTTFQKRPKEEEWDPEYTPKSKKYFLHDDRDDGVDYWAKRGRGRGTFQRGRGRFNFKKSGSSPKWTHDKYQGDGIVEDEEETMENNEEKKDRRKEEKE
UniProt O15173: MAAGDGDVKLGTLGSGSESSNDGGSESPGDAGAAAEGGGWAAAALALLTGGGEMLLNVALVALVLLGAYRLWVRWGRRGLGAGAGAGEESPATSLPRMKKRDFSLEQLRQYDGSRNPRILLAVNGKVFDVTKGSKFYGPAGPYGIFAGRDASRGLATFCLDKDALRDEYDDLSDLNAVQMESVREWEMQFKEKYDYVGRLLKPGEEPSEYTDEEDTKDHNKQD
UniProt P08238, whole entry, looked up: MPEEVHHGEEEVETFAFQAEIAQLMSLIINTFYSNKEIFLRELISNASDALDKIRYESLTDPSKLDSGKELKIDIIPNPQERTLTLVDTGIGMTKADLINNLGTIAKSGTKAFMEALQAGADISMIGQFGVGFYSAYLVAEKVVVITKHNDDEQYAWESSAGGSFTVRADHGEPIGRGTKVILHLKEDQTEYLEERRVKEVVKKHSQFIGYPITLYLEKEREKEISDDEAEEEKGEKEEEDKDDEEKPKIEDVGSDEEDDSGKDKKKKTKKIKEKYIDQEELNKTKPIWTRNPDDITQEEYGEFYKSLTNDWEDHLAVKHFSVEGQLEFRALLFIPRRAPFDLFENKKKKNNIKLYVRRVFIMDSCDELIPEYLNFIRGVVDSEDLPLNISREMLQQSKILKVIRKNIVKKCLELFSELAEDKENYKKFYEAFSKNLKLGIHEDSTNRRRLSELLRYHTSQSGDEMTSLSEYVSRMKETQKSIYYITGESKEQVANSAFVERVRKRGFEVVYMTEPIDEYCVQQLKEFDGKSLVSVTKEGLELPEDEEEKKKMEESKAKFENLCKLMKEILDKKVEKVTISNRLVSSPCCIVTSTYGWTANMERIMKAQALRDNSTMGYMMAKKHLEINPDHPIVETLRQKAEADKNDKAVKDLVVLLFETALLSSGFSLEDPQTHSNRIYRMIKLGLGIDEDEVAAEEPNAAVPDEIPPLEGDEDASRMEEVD
UniProt Q9UBC2: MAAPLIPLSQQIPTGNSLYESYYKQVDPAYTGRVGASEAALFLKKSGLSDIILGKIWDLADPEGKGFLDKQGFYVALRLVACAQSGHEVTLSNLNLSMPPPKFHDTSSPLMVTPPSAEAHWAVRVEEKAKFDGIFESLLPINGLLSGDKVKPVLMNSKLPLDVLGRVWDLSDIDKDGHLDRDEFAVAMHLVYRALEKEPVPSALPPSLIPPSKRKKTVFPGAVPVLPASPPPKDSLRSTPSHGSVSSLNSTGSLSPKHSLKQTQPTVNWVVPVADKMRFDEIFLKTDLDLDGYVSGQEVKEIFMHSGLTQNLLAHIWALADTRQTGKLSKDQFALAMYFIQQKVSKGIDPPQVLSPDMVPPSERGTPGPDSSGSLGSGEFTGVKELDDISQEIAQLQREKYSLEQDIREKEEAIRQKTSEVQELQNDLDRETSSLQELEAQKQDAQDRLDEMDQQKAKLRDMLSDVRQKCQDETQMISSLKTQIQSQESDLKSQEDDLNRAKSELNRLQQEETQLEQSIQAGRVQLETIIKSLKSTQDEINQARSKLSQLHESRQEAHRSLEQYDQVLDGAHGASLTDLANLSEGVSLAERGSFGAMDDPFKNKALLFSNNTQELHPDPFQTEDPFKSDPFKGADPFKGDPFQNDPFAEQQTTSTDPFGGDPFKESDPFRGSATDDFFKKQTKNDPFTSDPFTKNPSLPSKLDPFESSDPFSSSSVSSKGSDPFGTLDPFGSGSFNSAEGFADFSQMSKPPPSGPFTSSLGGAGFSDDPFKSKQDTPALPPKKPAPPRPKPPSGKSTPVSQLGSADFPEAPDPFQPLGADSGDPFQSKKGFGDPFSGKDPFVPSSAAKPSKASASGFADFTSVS

Columns and labels:
XL888 [1] = compound: T1, CC[C@@H](C)Nc1cc(C(=O)N[C@H]2C[C@H]3CC[C@@H](C2)N3c2ccc(C(=O)C3CC3)cn2)c(C)cc1C(N)=O [XL888]; assay: phosphopeptide melting temperature shift (XL888 minus DMSO); higher = stabilised by drug treatment; conditions: 100 µM; treatment time 2 h; layout: intact cells; SK-Mel 28
Method: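 Phospho-TPP in intact SK-Mel 28 cells treated with 100 uM XL888 or DMSO for 2 h, heated at 10 temperatures (37-67 C) for 3 min, soluble fraction TMT10plex-labelled and TiO2 phospho-enriched. Melting curves were fitted per phosphopeptide; the value is the melting point difference (drug minus vehicle) in each of two biological replicates.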

XL888 [2] = compound: T1, XL888; assay: as above; conditions: 100 µM; treatment time 2 h; layout: intact cells; SK-Mel 24
Method: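 Phospho-TPP in intact SK-Mel 24 cells treated with 100 uM XL888 or DMSO for 2 h, heated at 10 temperatures (37-67 C) for 3 min, soluble fraction TMT10plex-labelled and TiO2 phospho-enriched. Melting curves were fitted per phosphopeptide; the value is the melting point difference (drug minus vehicle) in each of two biological replicates.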

Target	phosphopeptide melting temperature shift (XL888 [1]) [°C]	phosphopeptide melting temperature shift (XL888 [2]) [°C]
UniProt Q02952-3_phosphosite_143 (phosphosite position: 143)	1.64 ± 0.4	0.804
G3BP1 phosphosite_232 (phosphosite position: 232) (UniProt Q13283)	-0.197 ± 1.3	-0.472
MICAL3 phosphosite_685 (phosphosite position: 685) (UniProt Q7RTP6)	1.28 ± 0.4	1.21
UniProt Q7Z6Z7-2_phosphosite_1907 (phosphosite position: 1907)	1.49 ± 0.39	0.511
UniProt Q13459-2_phosphosite_1992 (phosphosite position: 1992)	-1.74	0.195
ANP32B phosphosite_244 (phosphosite position: 244) (UniProt Q92688)	-0.319 ± 0.59	1.11
UniProt Q9NWV8-3_phosphosite_29 (phosphosite position: 29)	1.52 ± 4.9	4.31
UniProt P21127-9_phosphosite_236 (phosphosite position: 236)	2.62	3.24
UniProt Q99719-2_phosphosite_234 (phosphosite position: 234)	-0.801 ± 1.2	1.44
SRRM2 phosphosite_1492 (phosphosite position: 1492) (UniProt Q9UQ35)	0.284	2.11 ± 1.3
UniProt P21333-2_phosphosite_2144 (phosphosite position: 2144)	0.724 ± 0.22	0.549 ± 0.084
EIF3G phosphosite_42 (phosphosite position: 42) (UniProt O75821)	0.677 ± 0.82	-1.25
PSIP1 phosphosite_122 (phosphosite position: 122) (UniProt O75475)	-1.15 ± 0.46	0.483 ± 0.094
UniProt O95218-2_phosphosite_181 (phosphosite position: 181)	-0.738 ± 0.96	0.139
SRRM1 phosphosite_220 (phosphosite position: 220) (UniProt Q8IYB3)	1.01 ± 0.6	-0.346 ± 0.2
UniProt Q68DA7_phosphosite_235 (phosphosite position: 235)	0.749 ± 0.17	0.204
CCDC43 phosphosite_139 (phosphosite position: 139) (UniProt Q96MW1)	0.621 ± 1.2	1.28
HTATSF1 phosphosite_702 (phosphosite position: 702) (UniProt O43719)	1.64 ± 0.49	1.18
KRI1 phosphosite_171 (phosphosite position: 171) (UniProt Q8N9T8)	0.858 ± 0.35	0.313
ZNRF2 phosphosite_135 (phosphosite position: 135) (UniProt Q8NHG8)	0.362	-0.922
G3BP1 phosphosite_149 (phosphosite position: 149) (UniProt Q13283)	1.79	-1.53
UniProt P56693_phosphosite_45 (phosphosite position: 45)	0.165 ± 0.94	0.759 ± 0.92
AMPD2 phosphosite_190 (phosphosite position: 190) (UniProt Q01433)	1.11 ± 1	0.0152

Some values from the results shown:
Under phosphopeptide melting temperature shift (XL888 [1]) [°C], PSIP1 phosphosite_122 (phosphosite position: 122) (UniProt O75475) has the entry -1.15 ± 0.46
Under phosphopeptide melting temperature shift (XL888 [1]) [°C], SRRM2 phosphosite_1492 (phosphosite position: 1492) (UniProt Q9UQ35) has the entry 0.284

(list continues)

Target	phosphopeptide melting temperature shift (XL888 [1]) [°C]	phosphopeptide melting temperature shift (XL888 [2]) [°C]
ACTG1 phosphosite_239 (phosphosite position: 239) (UniProt P63261)	-1.7	-1.91
UniProt Q9NYF8-3_phosphosite_266 (phosphosite position: 266)	1.16 ± 2.6	2.71
SASH1 phosphosite_486 (phosphosite position: 486) (UniProt O94885)	1.69 ± 0.97	2.82
UniProt Q5TCZ1-2_phosphosite_354 (phosphosite position: 354)	1.49	0.631
MAP1B phosphosite_1819 (phosphosite position: 1819) (UniProt P46821)	-0.957 ± 0.054	2.5
DDX54 phosphosite_782 (phosphosite position: 782) (UniProt Q8TDD1)	3.3 ± 1.1	-0.0108
PAK1 phosphosite_174 (phosphosite position: 174) (UniProt Q13153)	1.69 ± 0.47	1.32
UniProt Q92538-3_phosphosite_1318 (phosphosite position: 1318)	1.3 ± 1.9	1.3 ± 0.37
PGRMC2 phosphosite_211 (phosphosite position: 211) (UniProt O15173)	1.54 ± 1.4	-0.977
HSP90AB1 phosphosite_226 (phosphosite position: 226) (UniProt P08238)	5.336 ± 0.028	5.7 ± 0.83
UniProt O00429-4_phosphosite_579 (phosphosite position: 579)	0.464 ± 1.2	-0.282 ± 0.33
UniProt Q5T1M5-2_phosphosite_946 (phosphosite position: 946)	0.481 ± 0.86	1.36
SKIV2L phosphosite_256 (phosphosite position: 256) (UniProt Q15477)	0.45 ± 0.15	0.151 ± 0.067
UniProt Q9UN86-2_phosphosite_227 (phosphosite position: 227)	1.08 ± 1.1	-0.885
UniProt Q641Q2-2_phosphosite_331 (phosphosite position: 331)	0.943 ± 0.88	0.476
UniProt Q96S55-2_phosphosite_75 (phosphosite position: 75)	0.491 ± 1.2	-1.22
EPS15L1 phosphosite_229 (phosphosite position: 229) (UniProt Q9UBC2)	-0.372	-0.812 ± 0.03
UniProt Q9ULH7-2_phosphosite_26 (phosphosite position: 26)	0.981	-0.176
UniProt O75382-3_phosphosite_358 (phosphosite position: 358)	1.09 ± 1.2	0.737
UniProt Q96Q05-3_phosphosite_944 (phosphosite position: 944)	0.262 ± 0.36	0.918
KPNA4 phosphosite_60 (phosphosite position: 60) (UniProt O00629)	1.67	-0.621
ACACA phosphosite_80 (phosphosite position: 80) (UniProt Q13085)	-0.0448	0.0199
WDR77 phosphosite_5 (phosphosite position: 5) (UniProt Q9BQA1)	1.72	-0.303
